{
  "source": "the supplement of paper PMC12819154",
  "about": "“High-throughput peptide-centric local stability assay extends protein–ligand identification to membrane proteins, tissues and bacteria” (Nature Structural & Molecular Biology, 2025)",
  "note": "This is one part of the list. Small differences around the control level are noise.",
  "data": [
    {"compound": "CN[C@@H]1C[C@H]2O[C@@](C)([C@@H]1OC)n1c3ccccc3c3c4c(c5c6ccccc6n2c5c31)C(=O)NC4 [staurosporine]", "test": "log2 fold change of tryptic peptide abundance, ligand vs vehicle (limited proteolysis) (log2 ratio); higher = more trypsin-susceptible (destabilized)", "details": "ligand concentration: 20 uM; sample: K562 cleared lysate; digestion: 4 min, 22 C (HT-PELSA RT4min, Orbitrap Astral)", "values": [
      {"target": "SUMO3 (peptide sequence: EGVKTENDHINLK, peptide start residue: 8) (UniProt P55854)", "log2 fold change": 0.119},
      {"target": "EEFSEC (peptide sequence: QQWALVEFEKPVTCPR, peptide start residue: 409) (UniProt P57772)", "log2 fold change": -0.166},
      {"target": "BCAR1 (peptide sequence: SQVTHYSNLLCDLLR, peptide start residue: 810) (UniProt P56945)", "log2 fold change": -0.207},
      {"target": "UniProt P60228 (peptide sequence: EIYNEKELLQGK, peptide start residue: 30)", "log2 fold change": 0.245},
      {"target": "CNBP (peptide sequence: SSNECFKCGR, peptide start residue: 2) (UniProt P62633)", "log2 fold change": -0.23},
      {"target": "STX17 (peptide sequence: RLEPAIQK, peptide start residue: 12) (UniProt P56962)", "log2 fold change": 0.383},
      {"target": "RAB4B (peptide sequence: TLASPNIVVILCGNKK, peptide start residue: 108) (UniProt P61018)", "log2 fold change": 0.394},
      {"target": "YWHAZ (peptide sequence: AKLAEQAER, peptide start residue: 10) (UniProt P63104)", "log2 fold change": 0.139},
      {"target": "UniProt P63000 (peptide sequence: HHCPNTPIILVGTK, peptide start residue: 103)", "log2 fold change": 0.179},
      {"target": "VBP1 (peptide sequence: YKFMELNLAQKK, peptide start residue: 60) (UniProt P61758)", "log2 fold change": 0.444},
      {"target": "MRPS21 (peptide sequence: ILTMDGLIEDIK, peptide start residue: 29) (UniProt P82921)", "log2 fold change": -0.474},
      {"target": "UniProt P62888 (peptide sequence: KSLESINSR, peptide start residue: 9)", "log2 fold change": 0.201},
      {"target": "UniProt P84103 (peptide sequence: VELSNGEK, peptide start residue: 78)", "log2 fold change": -0.501},
      {"target": "FKBP1A (peptide sequence: GVQVETISPGDGR, peptide start residue: 2) (UniProt P62942)", "log2 fold change": -0.149},
      {"target": "MRPS22 (peptide sequence: TFKPAIQELKPPTYK, peptide start residue: 90) (UniProt P82650)", "log2 fold change": 0.199},
      {"target": "CCT2 (peptide sequence: TPGKEAVAMESYAK, peptide start residue: 428) (UniProt P78371)", "log2 fold change": -0.492},
      {"target": "SH3BP2 (peptide sequence: GPGPLLPPPPPK, peptide start residue: 230) (UniProt P78314)", "log2 fold change": -0.74},
      {"target": "UniProt P62333 (peptide sequence: VGIIPPKGCLLYGPPGTGKTLLAR, peptide start residue: 162)", "log2 fold change": 0.535},
      {"target": "UniProt P61923 (peptide sequence: YYDDTYPSVKEQK, peptide start residue: 30)", "log2 fold change": 0.797},
      {"target": "UniProt P62837 (peptide sequence: SQWSPALTISK, peptide start residue: 91)", "log2 fold change": 0.186},
      {"target": "UniProt P60709 (peptide sequence: GYSFTTTAEREIVR, peptide start residue: 197)", "log2 fold change": 0.267},
      {"target": "UniProt P61978 (peptide sequence: ELRENTQTTIK, peptide start residue: 169)", "log2 fold change": 0.699},
      {"target": "SKP1 (peptide sequence: TFNIKNDFTEEEEAQVRK, peptide start residue: 138) (UniProt P63208)", "log2 fold change": -0.244},
      {"target": "UniProt P55072 (peptide sequence: VINQILTEMDGMSTKK, peptide start residue: 600)", "log2 fold change": 0.141},
      {"target": "NAA20 (peptide sequence: VSNQVAVNMYK, peptide start residue: 114) (UniProt P61599)", "log2 fold change": 0.371},
      {"target": "UBXN2A (peptide sequence: CVSPAEQK, peptide start residue: 51) (UniProt P68543)", "log2 fold change": -0.255},
      {"target": "UniProt P62280 (peptide sequence: RVLLGETGK, peptide start residue: 22)", "log2 fold change": 0.272},
      {"target": "UniProt P62263 (peptide sequence: IEDVTPIPSDSTR, peptide start residue: 129)", "log2 fold change": 0.244},
      {"target": "BTG1 (peptide sequence: ISCKEELLLGR, peptide start residue: 147) (UniProt P62324)", "log2 fold change": -0.088},
      {"target": "GMFB (peptide sequence: ETNNAAIIMK, peptide start residue: 26) (UniProt P60983)", "log2 fold change": 0.34},
      {"target": "UniProt P62847 (peptide sequence: MNDTVTIRTR, peptide start residue: 1)", "log2 fold change": 1.15},
      {"target": "TMF1 (peptide sequence: LGESQTLLAAAVER, peptide start residue: 800) (UniProt P82094)", "log2 fold change": -0.444},
      {"target": "NDUFA6 (peptide sequence: QATSTASTFVKPIFSR, peptide start residue: 8) (UniProt P56556)", "log2 fold change": -0.146},
      {"target": "UniProt P61009 (peptide sequence: YFFFDDGNGLK, peptide start residue: 127)", "log2 fold change": -0.429},
      {"target": "UniProt P61956 (peptide sequence: ADEKPKEGVK, peptide start residue: 2)", "log2 fold change": -0.0428},
      {"target": "UniProt P68363 (peptide sequence: AVFVDLEPTVIDEVR, peptide start residue: 65)", "log2 fold change": -0.143}
    ]}
  ]
}
